Laboratory results taken from EP1063290A1, “NOVEL DICARBONYLREDUCTASE AND GENE ENCODING THE SAME” (TAISHO PHARMACEUTICAL CO., LTD, priority 1998, dated 1999).
At least one compound was matched to its structure with a doubt left.

Chains of the proteins cited; added tags and fusions are not shown. Lines headed by an entry give the natural chain unless they say otherwise; changes in a name come on top.
UniProt Q91X52: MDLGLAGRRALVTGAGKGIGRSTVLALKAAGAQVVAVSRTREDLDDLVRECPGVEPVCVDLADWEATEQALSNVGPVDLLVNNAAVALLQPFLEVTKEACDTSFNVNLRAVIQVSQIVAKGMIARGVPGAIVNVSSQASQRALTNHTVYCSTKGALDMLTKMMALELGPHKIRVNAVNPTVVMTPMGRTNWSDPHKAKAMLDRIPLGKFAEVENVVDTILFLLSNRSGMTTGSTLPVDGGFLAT
UniProt Q7Z4W1: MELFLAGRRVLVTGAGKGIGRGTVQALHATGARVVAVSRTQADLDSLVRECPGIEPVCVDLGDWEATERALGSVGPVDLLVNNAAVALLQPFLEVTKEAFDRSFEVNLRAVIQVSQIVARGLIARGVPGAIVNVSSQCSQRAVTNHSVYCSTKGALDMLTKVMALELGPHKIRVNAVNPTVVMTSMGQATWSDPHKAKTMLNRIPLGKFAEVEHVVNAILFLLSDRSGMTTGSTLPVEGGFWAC

Experiments:
protein DCR1 = protein DCR1 (Mus musculus, UniProt Q91X52); test: Dicarbonyl reductase activity assay: substrate specificity and rate constants (NAD(P)H oxidation at 340 nm); conditions: against a reference of 100 for diacetyl
Method: (§1) The enzyme activity assay method is not particularly restricted, and it may be based on the activity assay method for mouse carbonyl reductase (CR) (Eur. J. Biochem. 22, 381-387(1995)). The enzyme used here was an expressed recombinant enzyme. • (a) Substrate specificity: In order to determine the substrate specificity, there may be used a hydrocarbon system including various ketone, aldehyde and ester groups, or an aromatic compound.
• (1) This was assayed under the following conditions. The reaction mixture (total: 2.0 ml) comprised an 80 mM potassium phosphate solution (pH 7.0 or 6.0), 0.1 mM NADPH or NADH and a carbonyl substrate or enzyme (50 µl) (10.1 µg or 3.7 µg of glomerin B). The oxidation rate for NAD(P)H was measured at 340 nm.

protein hDCR1 = protein hDCR1 (Homo sapiens, UniProt Q7Z4W1); test: Dicarbonyl reductase activity assay: substrate specificity (NAD(P)H oxidation at 340 nm); conditions: substrate concentration 12.5 μM; against a reference of 100 for diacetyl
Method: as §1
The reaction mixture (total: 2.0 ml) comprised an 80 mM potassium phosphate solution (pH 7.0 or 6.0), 0.1 mM NADPH or NADH and a carbonyl substrate or enzyme (50 µl) (10.1 µg or 3.7 µg of hDCR1).
The oxidation rate for NAD(P)H was measured at 340 nm.
One unit of enzyme activity was defined as that which catalyzed oxidation of 1 µmol of NAD(P)H in one minute at 25°C.

[1] = tested on: dicarbonyl reductase of the invention; test: Substrate reactivity features summarised from Tables 1, 2 and 3; format: biochemical; conditions: summary in words of Tables 1, 2 and 3

Compound	RA (%) relative activity (protein DCR1; substrate concentration 50 μM) [%]	RA (%) relative activity (protein hDCR1) [%]	reactivity (as substrate) [1]	RA (%) relative activity (protein DCR1; substrate concentration 12.5 μM) [%]
CCCCCC(O)C=CC=O (stereo not shown) [4-Hydroxynonenal]	0.01	–	–	–
O=C1C(=O)c2ccccc2-c2ccccc21 [Phenanthrenequinone]	–	181	strong reactivity	20.1
